Data from publication PMC6472371.
Results are given in words; binding and its absence hold for the method and conditions named. In cells and extracts the contact can be indirect. Some entries that bind do so weakly or less than the wild type.

By UniProt entry, the sequences of proteins in these tests, tags left out.
UniProt Q9H8M2: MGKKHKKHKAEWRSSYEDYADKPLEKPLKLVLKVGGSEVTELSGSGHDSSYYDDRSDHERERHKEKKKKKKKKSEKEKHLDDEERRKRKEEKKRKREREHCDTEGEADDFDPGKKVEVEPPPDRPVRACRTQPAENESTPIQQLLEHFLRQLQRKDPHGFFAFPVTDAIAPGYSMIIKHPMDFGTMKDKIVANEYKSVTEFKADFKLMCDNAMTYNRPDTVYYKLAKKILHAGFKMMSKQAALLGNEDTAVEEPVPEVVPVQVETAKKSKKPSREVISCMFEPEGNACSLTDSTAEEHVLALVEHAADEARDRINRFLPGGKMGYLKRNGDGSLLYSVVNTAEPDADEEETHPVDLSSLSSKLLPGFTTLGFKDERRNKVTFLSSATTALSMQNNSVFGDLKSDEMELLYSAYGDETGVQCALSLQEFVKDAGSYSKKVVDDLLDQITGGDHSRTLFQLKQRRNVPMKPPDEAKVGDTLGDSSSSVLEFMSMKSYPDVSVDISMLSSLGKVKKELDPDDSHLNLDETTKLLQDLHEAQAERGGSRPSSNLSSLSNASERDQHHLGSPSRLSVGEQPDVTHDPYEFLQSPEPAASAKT
UniProt P51532: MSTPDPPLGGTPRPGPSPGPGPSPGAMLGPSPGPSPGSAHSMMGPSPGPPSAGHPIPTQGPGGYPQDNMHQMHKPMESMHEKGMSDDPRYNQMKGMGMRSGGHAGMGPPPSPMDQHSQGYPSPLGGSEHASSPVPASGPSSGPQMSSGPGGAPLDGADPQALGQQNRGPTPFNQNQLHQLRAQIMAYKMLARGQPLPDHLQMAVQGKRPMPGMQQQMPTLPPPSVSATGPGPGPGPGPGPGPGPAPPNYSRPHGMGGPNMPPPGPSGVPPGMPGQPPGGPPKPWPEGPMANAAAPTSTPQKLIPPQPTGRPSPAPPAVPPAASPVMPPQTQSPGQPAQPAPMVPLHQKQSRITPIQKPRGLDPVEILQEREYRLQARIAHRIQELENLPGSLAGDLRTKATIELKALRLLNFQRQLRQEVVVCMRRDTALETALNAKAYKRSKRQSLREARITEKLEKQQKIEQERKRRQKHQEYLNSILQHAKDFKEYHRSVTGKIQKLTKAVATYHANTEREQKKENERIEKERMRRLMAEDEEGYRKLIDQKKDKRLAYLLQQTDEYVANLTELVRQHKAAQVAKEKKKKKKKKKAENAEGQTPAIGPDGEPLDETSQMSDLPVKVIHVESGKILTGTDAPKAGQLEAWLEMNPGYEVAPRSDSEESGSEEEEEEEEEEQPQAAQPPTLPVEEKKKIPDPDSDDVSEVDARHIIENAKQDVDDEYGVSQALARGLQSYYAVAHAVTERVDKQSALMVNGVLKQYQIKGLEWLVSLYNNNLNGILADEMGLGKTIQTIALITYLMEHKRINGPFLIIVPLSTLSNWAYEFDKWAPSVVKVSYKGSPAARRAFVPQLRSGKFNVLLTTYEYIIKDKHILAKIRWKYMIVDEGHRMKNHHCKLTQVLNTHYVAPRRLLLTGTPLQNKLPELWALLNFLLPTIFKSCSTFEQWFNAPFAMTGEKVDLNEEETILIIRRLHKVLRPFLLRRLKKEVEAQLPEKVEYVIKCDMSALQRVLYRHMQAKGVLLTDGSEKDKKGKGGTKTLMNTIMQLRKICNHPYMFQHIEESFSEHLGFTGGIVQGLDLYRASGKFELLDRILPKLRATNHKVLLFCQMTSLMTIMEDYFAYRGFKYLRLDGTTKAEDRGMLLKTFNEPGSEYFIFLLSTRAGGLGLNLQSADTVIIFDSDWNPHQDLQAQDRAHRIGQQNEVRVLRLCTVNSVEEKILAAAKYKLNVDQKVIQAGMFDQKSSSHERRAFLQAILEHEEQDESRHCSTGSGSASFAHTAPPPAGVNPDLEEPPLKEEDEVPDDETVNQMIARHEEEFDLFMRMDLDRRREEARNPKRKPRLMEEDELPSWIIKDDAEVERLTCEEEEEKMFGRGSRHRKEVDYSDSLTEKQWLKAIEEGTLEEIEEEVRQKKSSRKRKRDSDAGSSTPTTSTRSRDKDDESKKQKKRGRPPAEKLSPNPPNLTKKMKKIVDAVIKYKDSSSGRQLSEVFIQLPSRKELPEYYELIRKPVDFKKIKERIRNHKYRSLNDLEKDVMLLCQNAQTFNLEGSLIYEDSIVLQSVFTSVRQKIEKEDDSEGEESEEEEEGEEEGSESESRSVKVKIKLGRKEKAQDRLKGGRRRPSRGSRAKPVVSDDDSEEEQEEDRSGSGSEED

Target: GFP-BRD9 expressed in U937 cells (UniProt Q9H8M2)
Test: pull-down; GFP pull-down assay of U937 cells expressing GFP-BRD9, followed by western blotting; performed as previously described (ref. 32)

- binding: binds
Substance: SMARCA4 (endogenous, U937) (from UniProt P51532 1-1647)
